## Library screen at single concentrations

The values are deposited in ChEMBL (CHEMBL3988442, “University of Dundee, Small-Polar-MMV Screening Library” (2021)).

Values are the deposited “Percent Effect”, in %. How 0% and 100% were set is not recorded. Most values in the screen are low, and negative values occur. Compounds were drawn at random from those tested, without regard to their results.

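Whole-parasite assay of Trypanosoma brucei over 72 hours; the read-out is not stated. Concentration: 30 µM. Direction is inferred from retests: higher values go with stronger inhibition. Values scatter widely below zero; nearly all retest evidence comes from the higher of the two concentrations used. About 64,000 compounds were tested under these conditions; 1.5% (about 940) showed 50% or more at least once.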

structure,effect
Cc1ccnc(C2CN(c3ccnc(C)n3)C2)n1,20.41
[H][C@@]12CCN(C(=O)Cc3cccc(F)c3)C[C@@]1([H])O[C@H](c1noc(C)n1)C2,42.5
CCc1ccccc1CN1CCC(N2CCCC2=O)CC1,2.139
OCCN1CCN(Cc2coc(-c3cccc(F)c3)n2)CC1,-16.01
O=C(NCc1ccncc1)N(Cc1ccccc1F)C1CC1,23.36
CN1CCC(Oc2ccc(-n3ccnc3-c3nccn3C)cc2)CC1,-5.903
CN1CCCC1c1cccc(Cc2ccccc2F)n1 (centres undefined),101.4
CC(=O)N1CCC(CCNC(C)Cc2ccc(F)cc2)CC1 (centres undefined),-0.8861
Cc1cc(C)cc(C(=O)Nc2ccc(CC3CC(=O)NC3=O)cc2)c1 (centres undefined),-46.56
COc1ccc(-n2ccc(C(=O)N3CCN(C)CC3C)n2)cc1 (centres undefined),13.78
CC[C@@]1(O)CCN(C(=O)c2ccc(SC)cc2)C[C@H]1O,10.81
COC(=O)c1ccc(F)c(Cn2nc(C)cc2C)c1,8.043
[H][C@@]12CCN(C[C@@H]1CN(C)c1ccccc1)[C@@H](CNC(=O)NC(C)C)C2,-4.747
CC(C)c1nnc2n1CCN(C(=O)c1ccc3c(c1)COC3)C2,-18.28
COCCN(c1ccncc1)S(=O)(=O)c1cc(C)c(F)cc1F,-57.19
O=C(c1ccc(Cl)o1)N1CCCN(Cc2cscn2)CC1,13.96
COc1ccc(CNC(=O)NCc2cc(C)oc2C)cc1,-1.466
CC(C)(C)n1cc(C(=O)N2CCN(Cc3cccnc3)CC2)cn1,5.253
O=C(Cn1cccc(S(=O)(=O)N2CCCC2)c1=O)c1ccccc1Cl,-12.06
Cc1cnn(C2CCCN(C(=O)c3ccnc(-n4ccnc4)c3)C2)c1 (centres undefined),23.16
O=C(CCCn1ccnc1)N1CCC2(CC1)[C@H](O)C[C@@H]2OCCO,-72.21
CCOC(=O)COc1cccc(NC(=O)C2COCCO2)c1 (centres undefined),-19.6
CC(C)c1nc(CN(C)C(=O)C(O)c2ccc(Cl)cc2)cs1 (centres undefined),3.875
CCN1CCC(NC(=O)CNC(C)Cn2cccn2)CC1 (centres undefined),-88.42
Cc1c(F)cc(C(=O)NCC(F)(F)F)cc1NCC(=O)N(C)C,-54.13
COc1c(CNC(c2ccccc2)c2ccc(F)cc2)c(C)nn1C (centres undefined),-26.74
N#Cc1cccc(SCCS(N)(=O)=O)c1,-2.482
Cc1ccc(C2CSCCN2CC(=O)N2CCOCC2)cc1 (centres undefined),12.12
Cc1ccc(C2(O)CCN(Cc3nnc(-c4cccnc4)o3)CC2)nc1,-33.95
CCC(NC(N)=O)c1ccccc1OCC(=O)N1CCCC1 (centres undefined),-15.37
c1ccc(CN2CCC3(COCc4cnc(NCC5CC5)nc43)C2)cc1 (centres undefined),19.83
O=C(O)C(F)(F)F.[H][C@@]12CN(Cc3c[nH]cn3)C[C@]1([H])OCCN2c1cnccn1,-9.689
COc1ccc2cc(NC(=O)CCNc3ncccn3)cnc2c1,-21.48
O=C(NC1CCCC1)O[C@H]1COCCN(c2nc3ccccc3s2)C1,-15.45
COC(=O)c1cccc(S(=O)(=O)NC(=O)COC2CCCCC2)c1,-2.551
CC(C)=CCN1CCC2(CC1)c1ccccc1[C@@H](N1CCSCC1)[C@@H]2O,0.4561
CN(C)C(=O)CN1CCCC1c1nc(N)ncc1-c1ccc(F)cc1 (centres undefined),6.915
O=c1c2sccc2ncn1CC(O)CN1CCOCC1 (centres undefined),-25.57
O=C1CCC2(CCN(c3ncc(F)cn3)CC2)N1CCN1CCCC1,-30.23
CN1CCC(CNC(=O)NCc2ccc(N(C)C)cc2)CC1,-47.75
COc1ccccc1N1CCN(Cc2ncc(C)c(OC)c2C)CC1=O,-8.454
[H][C@@]12CCN(C(=O)COc3ccc(C)cc3)C[C@]1(COC)CCO2,-11.92
COCc1nc(C2CC2)nn1-c1cccc(F)c1,-44.9
[H][C@@]12CN(Cc3c[nH]c4ccccc34)C[C@]1([H])OCC(=O)N2,-42.29
[H][C@@]12CNC[C@@]1([H])N(CC1CC1)C(=O)CO2,-3.419
CCN1CCC12CCN(C(=O)c1ccsc1)C2.O=C(O)C(F)(F)F (centres undefined),-40.09
O=C(c1cc(C2CC2)nc2onc(-c3ccccc3)c12)N1CCOCC1,-60.05
CCCc1cc(=O)[nH]c2nnc(SCC(C)=O)n12,-0.1328
O=C(O)C(F)(F)F.[H][C@@]12CN(Cc3ccco3)C[C@]1([H])C(=O)N(c1ccsc1)C2,73.83
CC(=O)NC[C@@H]1C=C(C)[C@H](CC(=O)NCCN(C)C)C[C@H]1C(C)C,-57.91
Cn1cccc1C(=O)NCc1cn2c(n1)CN(Cc1ccccn1)CC2.O=C(O)C(F)(F)F.O=C(O)C(F)(F)F,-21.03
Cc1nccc(-c2cccc(NCC(=O)N3CCCC(C)C3)c2)n1 (centres undefined),89.85
COc1ccc(C(C(=O)O)N(C)CCN2CCOCC2)c(C)c1 (centres undefined),-11.87
CCN(CC)C(=O)CSc1nc2cc(C)nc-2c(O)n1Cc1ccco1,16.39
Cn1nc(CN2CCCCC2)c2c1CN(C(=O)c1cccc(C#N)c1)C2.O=C(O)C(F)(F)F,-2.274
O=C1CC2(CCN(Cc3ccoc3)C2)CN1c1ccc2c(c1)OCO2 (centres undefined),21.38
Cc1nc(C2CCCN(C(=O)c3cccc4c3OCO4)C2)sc1C (centres undefined),12.76
CN(C)C(=O)c1cccc(CN2CCN(CCO)CC2)c1,-46.39
O=c1c(S(=O)(=O)N2CCCC2)cccn1Cc1ccc(F)cc1Cl,-22.7
CC1c2cc(F)ccc2CCN1C(=O)c1[nH]c(=O)[nH]c(=O)c1N (centres undefined),-12.04
CN(Cc1ccncc1)C1CC2(CCN(C(=O)c3ccnnc3)CC2)C1,-7.656
Cc1ccccc1-c1cncc(C2CCN(CC(=O)N(C)C)CC2)n1,-2.879
NC(=O)CN1CCCC(C(=O)N2CCC(Oc3ncccn3)CC2)C1 (centres undefined),-32.63
O=C(O)C(F)(F)F.[H][C@@]12CCN(CC3CCOCC3)[C@@]1([H])CCN2C(=O)c1cccc(C#N)c1,-20.59
CC(=O)NCC(=O)N1Cc2c(-c3cccc(C)c3)nc(N)nc2C1C (centres undefined),-4.681
CC(=O)c1cc(CN2CCCCC2c2nc3cc(F)ccc3[nH]2)cs1 (centres undefined),-5.612
c1cn(Cc2nnc(C3CCN(c4nccs4)CC3)n2C2CC2)cn1,29.79
CCNC(=O)N1CCCCC1CCO (centres undefined),-9.936
Cc1nc[nH]c1CN1CCCN(c2nc3ccccc3s2)CC1,15.44
CCN(Cc1ccncc1)C1CCCN(Cc2ccc(F)cc2OC)C1 (centres undefined),8.345
NC(=O)CC1CCN(C(=O)NCCc2ccc(Cl)s2)CC1,6.8

Some entries from above, unchanged:

structure	effect
COc1ccccc1N1CCN(Cc2ncc(C)c(OC)c2C)CC1=O	-8.454
[H][C@@]12CNC[C@@]1([H])N(CC1CC1)C(=O)CO2	-3.419
CC(C)(C)n1cc(C(=O)N2CCN(Cc3cccnc3)CC2)cn1	5.253
CC(=O)N1CCC(CCNC(C)Cc2ccc(F)cc2)CC1 (centres undefined)	-0.8861
Cc1ccccc1-c1cncc(C2CCN(CC(=O)N(C)C)CC2)n1	-2.879
O=c1c(S(=O)(=O)N2CCCC2)cccn1Cc1ccc(F)cc1Cl	-22.7
CC(C)c1nc(CN(C)C(=O)C(O)c2ccc(Cl)cc2)cs1 (centres undefined)	3.875